Some of the results follow.
Assays:
Assay in all cases: log2 fold change, soluble protein after heating vs DMSO (PISA); higher = thermal stabilisation; K562 lysate, 10 uM; active = over 0.2 and 3.5 SD of the protein, either way, in both replicates (recomputed)
[1] = compound: CN1CC[C@H](c2c(O)cc(O)c3c(=O)cc(-c4ccccc4Cl)oc23)[C@H](O)C1 [alvocidib]
Procedure, shortened: (§1)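 Following dounce homogenisation of K562 pellets in PBS pH 7.4 with 1 mM MgCl2, crude extract at 1 mg/mL protein was incubated for 30 min with 10 μM compound. Aliquots were then heated for 3 min over 48°C-58°C and pooled, NP-40 was added to 0.5% at 4°C, and soluble protein was recovered as the supernatant at 21,000xg for 90 min. Channel-sum-equalised TMTpro 16plex LC-MS/MS quantified this protein. Each value, from duplicates, is a log-two fold change in thermal stability relative to solvent controls.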

By UniProt entry, the sequences of proteins in these tests, tags left out. Where a name states a change or a piece, a line headed by the entry shows the natural chain unless it says otherwise.
UniProt O15381: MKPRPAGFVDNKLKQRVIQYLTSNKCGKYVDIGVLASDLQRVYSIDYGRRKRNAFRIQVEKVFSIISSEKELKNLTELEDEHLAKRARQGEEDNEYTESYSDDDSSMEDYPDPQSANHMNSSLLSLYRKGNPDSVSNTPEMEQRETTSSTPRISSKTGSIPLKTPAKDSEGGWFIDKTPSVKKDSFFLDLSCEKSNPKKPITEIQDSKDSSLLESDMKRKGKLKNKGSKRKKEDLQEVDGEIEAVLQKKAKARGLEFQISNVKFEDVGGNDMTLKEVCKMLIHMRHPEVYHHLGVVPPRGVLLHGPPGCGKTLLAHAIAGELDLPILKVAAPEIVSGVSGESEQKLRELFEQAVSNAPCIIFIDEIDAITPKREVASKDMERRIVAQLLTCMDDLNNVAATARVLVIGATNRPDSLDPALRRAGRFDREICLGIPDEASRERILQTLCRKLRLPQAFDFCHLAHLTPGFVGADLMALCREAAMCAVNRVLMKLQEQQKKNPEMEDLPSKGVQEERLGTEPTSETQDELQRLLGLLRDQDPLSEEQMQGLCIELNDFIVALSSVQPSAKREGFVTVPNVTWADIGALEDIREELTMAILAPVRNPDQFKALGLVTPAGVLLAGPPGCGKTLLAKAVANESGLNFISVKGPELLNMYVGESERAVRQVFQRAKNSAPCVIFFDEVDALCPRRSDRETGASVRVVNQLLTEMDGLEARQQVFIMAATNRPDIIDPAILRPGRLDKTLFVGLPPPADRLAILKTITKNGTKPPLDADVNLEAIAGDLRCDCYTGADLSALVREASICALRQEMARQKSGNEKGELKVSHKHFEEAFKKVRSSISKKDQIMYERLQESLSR
UniProt Q9NRP0: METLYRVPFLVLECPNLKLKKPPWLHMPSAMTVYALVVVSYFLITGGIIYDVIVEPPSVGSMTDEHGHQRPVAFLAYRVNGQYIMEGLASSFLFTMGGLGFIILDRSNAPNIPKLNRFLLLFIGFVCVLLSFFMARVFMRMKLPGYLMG
UniProt Q9NWU1, whole entry, looked up: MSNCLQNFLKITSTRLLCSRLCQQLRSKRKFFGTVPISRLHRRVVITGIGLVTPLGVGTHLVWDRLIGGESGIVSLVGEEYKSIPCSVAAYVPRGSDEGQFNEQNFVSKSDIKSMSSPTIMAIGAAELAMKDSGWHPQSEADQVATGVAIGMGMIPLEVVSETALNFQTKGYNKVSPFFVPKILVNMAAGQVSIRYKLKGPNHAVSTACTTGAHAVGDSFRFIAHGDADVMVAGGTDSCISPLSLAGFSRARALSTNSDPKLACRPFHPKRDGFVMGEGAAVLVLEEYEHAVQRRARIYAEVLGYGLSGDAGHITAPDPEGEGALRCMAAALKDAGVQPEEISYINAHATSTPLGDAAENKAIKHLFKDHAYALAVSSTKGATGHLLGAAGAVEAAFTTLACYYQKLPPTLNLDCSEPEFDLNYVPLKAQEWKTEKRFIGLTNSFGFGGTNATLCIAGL
UniProt Q13415: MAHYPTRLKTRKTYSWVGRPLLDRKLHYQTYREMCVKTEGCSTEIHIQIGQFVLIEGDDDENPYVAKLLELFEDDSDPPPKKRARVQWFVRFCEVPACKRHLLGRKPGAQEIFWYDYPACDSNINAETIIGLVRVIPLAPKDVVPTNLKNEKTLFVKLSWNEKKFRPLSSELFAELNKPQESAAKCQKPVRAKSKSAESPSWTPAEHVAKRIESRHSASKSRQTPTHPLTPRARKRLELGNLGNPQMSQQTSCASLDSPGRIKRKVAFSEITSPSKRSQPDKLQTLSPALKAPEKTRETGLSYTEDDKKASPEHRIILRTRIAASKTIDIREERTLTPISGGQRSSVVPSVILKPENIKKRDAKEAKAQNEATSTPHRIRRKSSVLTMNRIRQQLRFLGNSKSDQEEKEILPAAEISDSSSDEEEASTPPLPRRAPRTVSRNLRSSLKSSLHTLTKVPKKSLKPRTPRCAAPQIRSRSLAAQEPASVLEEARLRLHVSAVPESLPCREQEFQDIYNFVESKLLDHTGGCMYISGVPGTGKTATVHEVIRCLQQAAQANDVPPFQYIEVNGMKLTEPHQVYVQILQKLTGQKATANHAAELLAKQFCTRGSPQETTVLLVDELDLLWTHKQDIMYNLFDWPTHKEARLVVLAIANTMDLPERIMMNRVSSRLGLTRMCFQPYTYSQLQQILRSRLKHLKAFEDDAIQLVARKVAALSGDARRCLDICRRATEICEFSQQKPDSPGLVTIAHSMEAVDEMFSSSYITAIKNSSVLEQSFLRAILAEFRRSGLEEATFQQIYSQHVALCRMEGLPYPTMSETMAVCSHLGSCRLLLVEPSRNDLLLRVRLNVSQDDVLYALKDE
UniProt Q8N4S7: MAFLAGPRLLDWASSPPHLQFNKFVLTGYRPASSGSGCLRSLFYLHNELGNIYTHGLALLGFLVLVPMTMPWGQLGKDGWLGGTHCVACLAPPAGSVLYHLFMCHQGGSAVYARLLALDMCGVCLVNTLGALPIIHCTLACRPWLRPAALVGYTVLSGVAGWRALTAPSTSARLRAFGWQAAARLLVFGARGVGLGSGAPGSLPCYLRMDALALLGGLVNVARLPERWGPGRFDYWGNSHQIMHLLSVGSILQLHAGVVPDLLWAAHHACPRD
UniProt Q8IVL6: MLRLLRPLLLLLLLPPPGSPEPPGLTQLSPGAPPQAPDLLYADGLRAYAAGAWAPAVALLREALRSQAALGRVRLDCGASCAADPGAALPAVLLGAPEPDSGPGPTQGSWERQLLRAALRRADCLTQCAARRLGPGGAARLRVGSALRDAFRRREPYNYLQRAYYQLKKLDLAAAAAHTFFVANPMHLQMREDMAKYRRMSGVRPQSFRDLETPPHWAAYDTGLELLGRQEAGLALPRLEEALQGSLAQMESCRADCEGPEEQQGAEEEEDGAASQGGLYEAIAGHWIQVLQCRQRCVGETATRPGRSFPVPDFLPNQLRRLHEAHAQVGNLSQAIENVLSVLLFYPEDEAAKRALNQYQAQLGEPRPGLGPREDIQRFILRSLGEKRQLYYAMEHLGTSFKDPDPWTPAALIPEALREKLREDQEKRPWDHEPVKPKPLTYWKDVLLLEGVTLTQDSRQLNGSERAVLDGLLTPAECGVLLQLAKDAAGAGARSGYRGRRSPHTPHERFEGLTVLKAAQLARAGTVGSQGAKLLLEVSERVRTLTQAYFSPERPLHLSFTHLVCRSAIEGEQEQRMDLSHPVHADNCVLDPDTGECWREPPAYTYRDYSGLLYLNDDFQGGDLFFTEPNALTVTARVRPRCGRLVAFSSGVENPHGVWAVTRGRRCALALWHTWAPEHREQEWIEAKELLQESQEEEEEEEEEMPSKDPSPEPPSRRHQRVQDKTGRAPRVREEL
UniProt Q5BKU9: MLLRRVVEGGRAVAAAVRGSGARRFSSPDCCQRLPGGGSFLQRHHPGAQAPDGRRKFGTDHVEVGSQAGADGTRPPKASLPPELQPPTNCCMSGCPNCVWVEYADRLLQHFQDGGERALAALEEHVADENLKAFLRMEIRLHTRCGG
UniProt Q8TEW8: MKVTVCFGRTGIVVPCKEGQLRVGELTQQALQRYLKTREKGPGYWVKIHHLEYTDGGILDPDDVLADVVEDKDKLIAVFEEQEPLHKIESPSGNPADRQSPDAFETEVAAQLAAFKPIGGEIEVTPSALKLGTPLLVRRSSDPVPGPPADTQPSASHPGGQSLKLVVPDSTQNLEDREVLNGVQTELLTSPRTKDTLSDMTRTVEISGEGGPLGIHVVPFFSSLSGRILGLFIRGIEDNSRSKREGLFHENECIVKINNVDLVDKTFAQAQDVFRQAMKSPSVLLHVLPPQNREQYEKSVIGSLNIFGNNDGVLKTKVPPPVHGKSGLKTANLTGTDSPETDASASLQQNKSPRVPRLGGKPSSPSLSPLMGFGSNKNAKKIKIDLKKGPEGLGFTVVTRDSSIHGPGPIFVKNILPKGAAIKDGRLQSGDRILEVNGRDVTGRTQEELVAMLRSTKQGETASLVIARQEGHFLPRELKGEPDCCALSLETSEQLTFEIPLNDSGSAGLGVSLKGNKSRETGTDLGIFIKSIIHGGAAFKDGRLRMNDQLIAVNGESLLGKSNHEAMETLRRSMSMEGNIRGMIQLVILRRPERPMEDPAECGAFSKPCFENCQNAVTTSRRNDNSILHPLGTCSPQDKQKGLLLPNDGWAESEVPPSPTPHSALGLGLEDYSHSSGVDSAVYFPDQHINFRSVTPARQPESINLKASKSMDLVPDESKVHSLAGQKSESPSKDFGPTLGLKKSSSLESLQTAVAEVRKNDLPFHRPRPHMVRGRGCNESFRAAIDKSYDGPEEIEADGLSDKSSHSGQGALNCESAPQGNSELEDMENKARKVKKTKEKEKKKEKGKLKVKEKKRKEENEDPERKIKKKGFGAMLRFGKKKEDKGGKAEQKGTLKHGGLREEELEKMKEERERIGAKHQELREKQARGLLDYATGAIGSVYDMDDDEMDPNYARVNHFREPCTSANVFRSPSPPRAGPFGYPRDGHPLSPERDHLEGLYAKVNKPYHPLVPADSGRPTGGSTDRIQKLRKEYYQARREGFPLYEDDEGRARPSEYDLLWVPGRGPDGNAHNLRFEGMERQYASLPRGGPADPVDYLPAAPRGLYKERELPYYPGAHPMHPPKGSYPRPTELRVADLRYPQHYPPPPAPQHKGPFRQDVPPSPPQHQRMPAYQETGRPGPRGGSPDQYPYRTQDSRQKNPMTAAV
UniProt Q9NPJ8: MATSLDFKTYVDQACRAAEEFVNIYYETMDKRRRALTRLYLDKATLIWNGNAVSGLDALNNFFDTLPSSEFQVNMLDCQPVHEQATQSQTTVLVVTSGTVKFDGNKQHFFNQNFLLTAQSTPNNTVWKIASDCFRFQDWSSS
UniProt Q8NFH5: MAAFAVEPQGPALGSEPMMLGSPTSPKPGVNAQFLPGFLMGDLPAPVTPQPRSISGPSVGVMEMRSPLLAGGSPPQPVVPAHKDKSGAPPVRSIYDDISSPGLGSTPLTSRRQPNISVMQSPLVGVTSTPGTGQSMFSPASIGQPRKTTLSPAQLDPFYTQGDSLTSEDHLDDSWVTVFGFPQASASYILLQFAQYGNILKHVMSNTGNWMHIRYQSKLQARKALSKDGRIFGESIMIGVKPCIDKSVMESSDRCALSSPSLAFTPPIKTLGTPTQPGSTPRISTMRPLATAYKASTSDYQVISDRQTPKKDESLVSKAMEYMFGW
UniProt Q9Y6K5: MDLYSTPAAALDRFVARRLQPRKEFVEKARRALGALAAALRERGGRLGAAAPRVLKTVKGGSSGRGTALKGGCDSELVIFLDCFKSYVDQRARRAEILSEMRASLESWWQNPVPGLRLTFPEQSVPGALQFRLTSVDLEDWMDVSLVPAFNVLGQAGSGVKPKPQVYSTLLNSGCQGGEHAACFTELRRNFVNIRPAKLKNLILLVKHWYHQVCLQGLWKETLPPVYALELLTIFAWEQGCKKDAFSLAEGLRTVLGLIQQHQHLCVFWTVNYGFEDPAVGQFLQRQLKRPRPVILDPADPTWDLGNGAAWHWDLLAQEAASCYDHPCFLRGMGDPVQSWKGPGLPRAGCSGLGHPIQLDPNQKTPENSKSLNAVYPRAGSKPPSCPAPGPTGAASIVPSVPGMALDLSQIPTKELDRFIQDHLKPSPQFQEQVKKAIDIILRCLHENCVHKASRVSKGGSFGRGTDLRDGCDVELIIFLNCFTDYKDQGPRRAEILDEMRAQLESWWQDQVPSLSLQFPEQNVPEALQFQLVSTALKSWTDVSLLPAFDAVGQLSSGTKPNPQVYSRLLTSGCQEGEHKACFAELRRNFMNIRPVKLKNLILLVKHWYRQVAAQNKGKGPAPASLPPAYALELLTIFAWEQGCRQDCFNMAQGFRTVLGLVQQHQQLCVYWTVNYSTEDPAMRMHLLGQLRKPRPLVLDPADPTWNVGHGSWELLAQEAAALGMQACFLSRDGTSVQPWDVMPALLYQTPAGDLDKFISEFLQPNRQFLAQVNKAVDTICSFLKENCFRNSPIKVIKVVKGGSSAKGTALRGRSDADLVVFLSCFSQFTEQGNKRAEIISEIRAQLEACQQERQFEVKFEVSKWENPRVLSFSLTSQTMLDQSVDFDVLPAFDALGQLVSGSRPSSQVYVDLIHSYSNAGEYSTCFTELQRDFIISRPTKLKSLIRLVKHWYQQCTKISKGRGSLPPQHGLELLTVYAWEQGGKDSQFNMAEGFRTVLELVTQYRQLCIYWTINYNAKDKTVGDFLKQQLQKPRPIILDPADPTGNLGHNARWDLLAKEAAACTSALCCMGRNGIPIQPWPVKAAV
UniProt Q86U42: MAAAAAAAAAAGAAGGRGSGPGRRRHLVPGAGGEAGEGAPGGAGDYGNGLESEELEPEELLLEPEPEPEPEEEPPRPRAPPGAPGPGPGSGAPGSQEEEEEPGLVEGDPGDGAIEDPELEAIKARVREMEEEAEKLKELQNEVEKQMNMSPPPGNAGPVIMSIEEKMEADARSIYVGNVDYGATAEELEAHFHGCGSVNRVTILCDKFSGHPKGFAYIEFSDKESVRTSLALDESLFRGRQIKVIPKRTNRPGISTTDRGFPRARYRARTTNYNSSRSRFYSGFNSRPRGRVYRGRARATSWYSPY

[2] = compound: CN1CCc2c(c3ccccc3n2Cc2ccc(C(=O)NO)cc2)C1 [Tubastatin A]
Procedure, shortened: as §1

[3] = compound: CNC(=O)C1=CC=CC=C1NC2=NC(=NC=C2Cl)NC3=C(C=C(C=C3)N4CCOCC4)OC
Procedure, shortened: as §1

[4] = compound: CNC(=O)c1ccc(Nc2ncc(C(F)(F)F)c(NCc3nccnc3N(C)S(C)(=O)=O)n2)cc1 [defactinib]
Procedure, shortened: as §1

[5] = compound: CNc1nc(-c2ccc3c(N)n[nH]c3c2)cc(N2C[C@@H](C(=O)NC3CCCCC3)CC[C@H]2C)n1
Procedure, shortened: as §1

[6] = compound: COc1cc(Nc2ncc3c(n2)-c2ccc(Cl)cc2C(c2c(F)cccc2OC)=NC3)ccc1C(=O)O [alisertib]
Procedure, shortened: as §1

[7] = compound: COc1cc2nc(-c3cc(F)ccc3O)nc(N[C@@H]3CNC[C@H]3C(C)(C)O)c2cc1OC
Procedure, shortened: as §1

[8] = compound: COc1cc2ncnc(Nc3ccc(F)c(Cl)c3)c2cc1OCCCN1CCOCC1 [gefitinib]
Procedure, shortened: as §1

[9] = compound: COC(=O)N[C@@H](C)CNc1nccc(-c2cn(C(C)C)nc2-c2cc(Cl)cc(NS(C)(=O)=O)c2F)n1 [encorafenib]
Procedure, shortened: as §1

[10] = compound: COC(=O)[C@H](CCSC)NC(=O)C1=C(C=C(C=C1)NC[C@H](CS)N)C2=CC=CC=C2
Procedure, shortened: as §1

Row | Target | log2 fold change [1] | log2 fold change [2] | log2 fold change [3] | log2 fold change [4] | log2 fold change [5] | log2 fold change [6] | log2 fold change [7] | log2 fold change [8] | log2 fold change [9] | log2 fold change [10]
1 | NVL (UniProt O15381) | inactive: -0.061 | inactive: -0.144 | inactive: -0.038 | inactive: -0.005 | inactive: -0.067 | inactive: 0.024 | inactive: 0.072 | inactive: 0.067 | – | –
2 | OAT (UniProt P04181) | inactive: -0.023 | inactive: -0.016 | inactive: -0.03 | inactive: -0.016 | inactive: -0.023 | inactive: 0.036 | inactive: 0.006 | inactive: 0.008 | inactive: -0.022 | inactive: 0.091
3 | OSTC isoform 2 (UniProt Q9NRP0) | inactive: -0.044 | inactive: -0.083 | inactive: 0.05 | inactive: 0.009 | inactive: 0.031 | inactive: -0.065 | inactive: -0.071 | inactive: -0.031 | inactive: 0.092 | inactive: -0.081
4 | PANX1 (UniProt Q96RD7) | inactive: 0.036 | inactive: -0.028 | inactive: 0.011 | inactive: 0.023 | inactive: 0.016 | inactive: 0.026 | inactive: 0.022 | inactive: 0.081 | inactive: -0.009 | inactive: -0.072
5 | ODF2 (UniProt Q5BJF6) | inactive: 0.129 | inactive: 0.134 | inactive: 0.034 | inactive: 0 | inactive: -0.047 | inactive: -0.131 | – | inactive: 0.003 | inactive: 0.014 | inactive: 0.018
6 | PABPC1 (UniProt H0YAR2) | inactive: 0.021 | inactive: -0.03 | inactive: -0.004 | – | – | inactive: -0.107 | inactive: 0.064 | inactive: 0.042 | – | –
7 | OXSM (UniProt Q9NWU1) | inactive: -0.01 | inactive: 0.062 | inactive: -0.004 | inactive: 0.003 | inactive: 0.035 | inactive: -0.03 | inactive: -0.016 | inactive: 0 | inactive: -0.033 | inactive: -0.031
8 | PANK2 (UniProt Q9BZ23) | inactive: 0.057 | inactive: 0.108 | – | inactive: 0.023 | inactive: 0 | active: 0.35 | inactive: -0.046 | inactive: -0.233 | inactive: -0.01 | inactive: 0.014
9 | ORC6 (UniProt Q9Y5N6) | inactive: 0.097 | inactive: -0.055 | inactive: 0.048 | inactive: 0.004 | inactive: 0.006 | inactive: -0.016 | – | inactive: 0.02 | inactive: 0.026 | inactive: 0.005
10 | ORMDL1 (UniProt Q9P0S3) | inactive: -0.052 | inactive: -0.052 | inactive: 0.145 | inactive: 0.169 | inactive: -0.02 | inactive: -0.067 | – | inactive: 0.08 | – | –
11 | OPA1 isoform 2 (UniProt O60313) | inactive: 0.012 | inactive: 0.038 | inactive: -0.032 | inactive: -0.013 | inactive: -0.042 | inactive: 0.03 | inactive: -0.041 | inactive: -0.003 | inactive: -0.017 | inactive: 0.053
12 | NUP58 (UniProt Q9BVL2) | inactive: -0.031 | inactive: 0.059 | inactive: -0.012 | inactive: -0.033 | inactive: -0.003 | inactive: 0.009 | inactive: 0.034 | inactive: 0.115 | inactive: -0.018 | inactive: -0.056
13 | ORC5 (UniProt O43913) | inactive: 0.001 | inactive: -0.163 | inactive: 0.001 | inactive: 0.062 | inactive: -0.008 | inactive: -0.004 | inactive: 0.006 | inactive: -0.011 | inactive: 0.049 | inactive: 0.165
14 | NUTF2 (UniProt P61970) | inactive: 0.042 | inactive: 0.034 | inactive: 0.026 | inactive: 0.116 | inactive: 0.008 | inactive: -0.001 | inactive: -0.075 | inactive: -0.09 | inactive: 0.003 | inactive: 0.033
15 | ODR4 (UniProt Q5SWX8) | inactive: -0.01 | inactive: 0.058 | inactive: -0.006 | inactive: 0.006 | inactive: -0.037 | inactive: 0.051 | inactive: 0.012 | inactive: -0.059 | inactive: 0.021 | inactive: 0.059
16 | PAIP2 (UniProt Q9BPZ3) | inactive: 0.009 | inactive: 0.045 | inactive: -0.03 | inactive: -0.056 | inactive: 0.037 | inactive: -0.038 | inactive: -0.049 | inactive: -0.019 | inactive: -0.092 | inactive: 0.071
17 | OSBPL9 (UniProt E9PLH0) | – | – | inactive: 0.054 | – | – | – | – | – | – | –
18 | ORC1 (UniProt Q13415) | – | – | – | – | – | – | – | – | inactive: 0.018 | inactive: -0.188
19 | PAQR4 (UniProt Q8N4S7) | – | – | inactive: -0.061 | – | – | – | – | – | – | –
20 | OS9 isoform 7 (UniProt Q13438) | inactive: -0.087 | – | inactive: 0.035 | – | – | – | – | – | – | –
21 | NXPE1 (UniProt F5H0Y6) | – | – | – | – | – | – | inactive: 0.087 | – | – | –
22 | ORC3 (UniProt Q9UBD5) | inactive: 0.16 | – | – | – | – | inactive: -0.035 | inactive: 0 | inactive: 0.105 | – | –
23 | OPHN1 (UniProt O60890) | inactive: 0.022 | inactive: 0.111 | – | – | inactive: 0.062 | – | inactive: 0.117 | – | inactive: 0.221 | inactive: 0.003
24 | P3H3 (UniProt Q8IVL6) | – | – | inactive: -0.181 | inactive: 0.095 | inactive: 0.141 | – | – | – | – | –
25 | OXLD1 (UniProt Q5BKU9) | – | inactive: 0.21 | – | – | – | inactive: -0.128 | inactive: -0.054 | inactive: -0.167 | – | –

Individual results from above.
Entry of PANX1 (UniProt Q96RD7) under log2 fold change [8]: inactive: 0.081
Entry of ORC1 (UniProt Q13415) under log2 fold change [9]: inactive: 0.018

Next part:

Row | Target | log2 fold change [1] | log2 fold change [2] | log2 fold change [3] | log2 fold change [4] | log2 fold change [5] | log2 fold change [6] | log2 fold change [7] | log2 fold change [8] | log2 fold change [9] | log2 fold change [10]
26 | NUP214, A0A494C1F2 | – | inactive: -0.262 | inactive: -0.169 | – | – | – | – | – | – | –
27 | OCIAD1 (UniProt D6RDK6) | – | – | – | inactive: -0.119 | – | inactive: 0.004 | inactive: 0.075 | inactive: 0.045 | inactive: 0.014 | inactive: 0.029
28 | OPA3 isoform 2 (UniProt Q9H6K4) | – | – | – | – | inactive: 0.057 | – | – | – | – | –
29 | PALM isoform 2 (UniProt O75781) | – | – | inactive: 0.185 | – | – | – | – | – | – | –
30 | PARD3B (UniProt Q8TEW8) | inactive: -0.125 | – | inactive: 0.005 | – | inactive: 0.093 | – | – | – | – | –
31 | NXT2 isoform 3 (UniProt Q9NPJ8) | inactive: 0.117 | – | – | – | – | – | inactive: -0.101 | – | – | –
32 | P4HB (UniProt I3L0S0) | – | – | – | – | – | – | inactive: -0.038 | – | – | –
33 | OGG1 isoform 4 (UniProt O15527) | – | – | inactive: -0.053 | – | inactive: 0.098 | – | – | – | inactive: 0.024 | inactive: -0.021
34 | OAF (UniProt Q86UD1) | – | inactive: -0.183 | inactive: -0.06 | – | inactive: -0.039 | – | – | – | – | –
35 | PACRGL (UniProt Q8N7B6) | inactive: 0.022 | – | – | – | inactive: -0.076 | – | – | – | inactive: -0.141 | inactive: -0.094
36 | NUP35 (UniProt Q8NFH5) | inactive: 0.068 | inactive: -0.074 | – | inactive: -0.381 | – | inactive: -0.045 | inactive: -0.064 | inactive: -0.228 | inactive: -0.166 | inactive: -0.129
37 | PAOX (UniProt Q6QHF9) | – | inactive: 0.055 | – | – | – | – | – | – | – | –
38 | OAS3 (UniProt Q9Y6K5) | – | inactive: 0.159 | inactive: 0.096 | – | – | inactive: 0.041 | inactive: 0.001 | inactive: -0.007 | inactive: 0.04 | inactive: -0.26
39 | PAPSS2 isoform 2 (UniProt O95340) | inactive: -0.108 | – | – | inactive: -0.03 | – | – | inactive: 0.037 | – | inactive: -0.059 | inactive: 0.029
40 | OCIAD1 (UniProt D6RF01) | – | – | – | – | – | inactive: -0.646 | inactive: 0.109 | inactive: -0.423 | – | –
41 | OSGEPL1 (UniProt Q9H4B0) | – | – | – | inactive: -0.082 | – | – | inactive: 0.021 | – | inactive: -0.123 | inactive: 0.039
42 | PABPN1 (UniProt Q86U42) | inactive: -0.153 | inactive: 0.088 | – | – | inactive: 0.079 | inactive: 0.036 | inactive: 0.006 | inactive: 0.007 | inactive: -0.177 | inactive: 0.184
43 | OSBPL1A (UniProt Q9BXW6) | inactive: -0.035 | – | inactive: 0.091 | – | inactive: 0.099 | inactive: -0.071 | inactive: 0.048 | inactive: 0.135 | – | –
44 | PAN3 (UniProt Q58A45) | – | – | – | – | – | inactive: -0.17 | – | inactive: -0.201 | – | –
45 | ORMDL3 (UniProt Q8N138) | – | – | – | – | inactive: 0.047 | – | inactive: 0.026 | – | – | –
46 | OFD1 (UniProt O75665) | inactive: -0.001 | inactive: -0.015 | – | inactive: -0.01 | inactive: 0.092 | inactive: 0.286 | – | inactive: -0.127 | inactive: 0.181 | inactive: -0.218
47 | OBSCN isoform 6 (UniProt Q5VST9) | – | – | inactive: 0.009 | – | – | – | inactive: 0.088 | – | – | –
48 | PALM (UniProt O75781) | inactive: -0.035 | – | inactive: 0.051 | inactive: 0.078 | inactive: 0.026 | inactive: 0.088 | inactive: 0.056 | inactive: 0.063 | inactive: 0.004 | inactive: 0.064
49 | NXF2 (UniProt Q9GZY0) | inactive: 0.162 | – | inactive: 0.104 | – | inactive: -0.026 | – | – | – | – | –
50 | PAQR7 (UniProt Q86WK9) | – | – | inactive: -0.199 | – | – | – | – | – | – | –

Source: the supplement of paper PMC10849652
